These are yes or no findings as the source states them, for the method shown. Some binding calls cover weakened binding; strength is not graded here.

By UniProt entry, the sequences of proteins in these tests, tags left out.
UniProt P41597: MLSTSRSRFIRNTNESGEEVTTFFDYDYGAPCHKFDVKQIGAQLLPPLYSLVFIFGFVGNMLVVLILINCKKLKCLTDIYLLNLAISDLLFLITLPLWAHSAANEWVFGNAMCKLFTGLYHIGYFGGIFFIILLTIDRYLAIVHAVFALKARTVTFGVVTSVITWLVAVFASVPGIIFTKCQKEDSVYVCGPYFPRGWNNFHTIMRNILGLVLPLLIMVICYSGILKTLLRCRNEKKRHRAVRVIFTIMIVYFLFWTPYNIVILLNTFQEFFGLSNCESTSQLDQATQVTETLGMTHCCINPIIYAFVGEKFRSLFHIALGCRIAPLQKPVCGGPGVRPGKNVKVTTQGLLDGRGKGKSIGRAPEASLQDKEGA

First the molecules themselves.
B1: 42F1 (antibody, V domains shown)
VH: QLVESGGDLVQPGGFLRLSCAASGFTFSSYSMNWVRQAPGKGLEWVANIKQDGSEKYYVDSVKGRFTISRDNAKNSLYLQMNSLRAEDTAVYYCARAPGSYWGQGTLVTVSS
VL: QSVVTQPPSVSAAPGQKVTIACSGSSSNIGTHYTSWYQQLPGAAPKLLIYGSSKRPSGIPDRFSGSKSGTSATLGITGLQTGDEAEYYCATWDSRLNVGVFGGGTKLTVL
B2: D1-3/LO (antibody, V domains shown)
VH: QVQLVQSGAEVKKPGASVKVSCKASGYTFTGYHMHWVRQAPGQGLEWMGWINPNSGVTKYAQKFQGRVTMTRDTSTSTVYMELSSLRSEDTAVYYCATGSGGGTMDVWGEGTLVTVSS
VL: LPVLTQPPSVSKGLRQTATLTCTGNSNNVGNQGAAWLQQHQGQPPKLLSYRNHNRPSGVSERFSPSRSGDTSSLTITGLQPEDEADYYCLAWDSSLRAFVFGTGTKLTVL
B3: D1-5/LO (antibody, V domains shown)
VH: QVQLVQSGAEVKKPGASVKVSCKASGYTFTGYHMHWVRQAPGQGLEWMGWINPNGGVTSYAQKFQGRVTMTRDTSTSTVYMELSSLRSEDTAVYYCATGGFGYWGEGTLVTVSS
VL: LPVLTQPPSVSKGLRQTATLTCTGNSNNVGNQGAAWLQQHQGQPPKLLSYRNHNRPSGVSERFSPSRSGDTSSLTITGLQPEDEADYYCLAWDSSLRAFVFGTGTKLTVL
B4: D1-8/LO (antibody, V domains shown)
VH: QVQLVQSGAEVKKPGASVKVSCKASGYTFTGYHMHWVRQAPGQGLEWMGIINPSGGSTSYAQKFQGRVTMTRDTSTSTVYMELSSLRSEDTAVYYCATGSGGGTMDVWGEGTLVTVSS
VL: LPVLTQPPSVSKGLRQTATLTCTGNSNNVGNQGAAWLQQHQGQPPKLLSYRNHNRPSGVSERFSPSRSGDTSSLTITGLQPEDEADYYCLAWDSSLRAFVFGTGTKLTVL
B5: 42D4 (antibody, V domains shown)
VH: EVQLVESGGELVQPGGSLRLSCAASGFTFSSFAMHWVRQAPGKGLEYVSGISSNGGSTYYANSVKGRFTISRDNSKNTLSLQMGSLRPEDMAVYYCARGGMDVWGQGTTVTVSS
VL: QSVLTQPPSVSKGLRQTATLTCTGNSNNVGNQGAAWLQQHQGHPPKLLSYRNHNRPSGISERFSASTSGSTASLTIVGLQPEDEADYYCLAWDTSLHAFVFGSGTKLTVL
B6: 42E8 (antibody, V domains shown)
VH: QVQLVQSGAEVKKPGASVKVSCKAYGYTFTNYYLHWVRQAPGQGLEWMGIINPSGGNTNYAQKFKGRVTMTRDTSTNTVYMEMSSLRSEDTAVYYCARGGGGAFDIWGQGTMVTVSS
VL: DIVMTQSPLSSPVTLGQPASISCRSSQSLVHSDGNTYLSWLQQRPGQPPRLLIYRTSKRFSGVPDRFSGSGSGTDFTLKISRVEVEDVGVYYCMQATQFPRTFGQGTKVEIK
B7: 43F12 (antibody, V domains shown)
VH: QVQLVESGGGLVQPGRSLRLSCAASGFSFDDYAMHWVRQAPGKGLEWVSLIYSGGKTYYADSVKGRFTISRDSSKNTLYLQMNTLRPEDTAVYYCARNIGNWGQGTLVTVSS
VL: QSVLTQPPSVSKDLRQTATLTCTGNSNNVGNQGAAWLQQHQGHPPKFLSDRYNNRPSGISERFSASRSGNTASLTITGVQPEDEADYYCSAWDTSLNALVFGGGTKLTVL
B8: 55E4 (antibody, V domains shown)
VH: EVQLVESGAEVKKPGASVKVSCKASGYTFTSYYMHWVRQAPGRGLEWMGIINPSSGSTSYAQKFQGRVTMTRDTSTSTVYMELSSLRSEDTAVYYCARGQGTAIRAFDIWGQGTMVTVSS
VL: DIVMTQTPLSSPVTLGQPAAISCRSSQSLVNSDGNTYLSWLQQRPGQPPRVLINKVSNRLSGVPDRFSGSGAGTDFTLKISRVEAEDVGVYYCMQATEFPWTFGQGTRLEIK
B9: 55F5 (antibody, V domains shown)
VH: EVQLVQSGAEVKKPGASVKVSCKASGYTFTSYYMHWVRQAPGRGLEWMGIINPSSGSTSYAQKFQGRVTMTRDTSTSTVYMELSSLRSEDTAVYYCARGQGTAIRAFDIWGQGTMVTVSS
VL: DVVMTQSPLSSPVTLGQPASISCKSSQTLVHNDGNSYLSWLHQRPGQPPRLLIYKVSNRFSGVPDRFSGSGAGTDFTLRIGRVEAEDVGVYYCMQATQFPYTFGQGTKLEIK

The experiment concerns the target human CCR2 (CC-Chemokine Receptor 2) (human) (UniProt P41597). The experiment can be described thus: flow cytometry on CHO-huCCR2 cells, antibody at 5, 10 and/or 20 ug/ml. A general note: Flow cytometry measures light scatter and fluorescence of single cells or particles in a stream.
As to B1, the binding entry is on record as “binds”.

On to B2, for which the binding entry is recorded as “binds”.

With B3, the binding entry was “binds”.

Regarding B4, the binding result is “binds”.

Consider B5, for which the binding result was “binds”.

For B6, the binding result was “binds”.

B7: the binding result was “binds”.

On to B8, for which the binding entry is on record as “binds”.

Regarding B9, the binding entry is on record as “binds”.

Values taken from US20130344070A1.
